From doi:10.1101/2023.05.31.543024
These are yes or no findings as the source states them, for the method shown. Binding seen in cells or lysates may run through a third protein. Some binding calls cover weakened binding; strength is not graded here. Where a sequence is shown, tags or fusion partners need not be part of it.

Legend:
Experiment in all cases: co-IP
[1] = target: T1, HA-DRG1 L155E + Y262A + D280Y (human) (UniProt Q9Y295)
T1 sequence: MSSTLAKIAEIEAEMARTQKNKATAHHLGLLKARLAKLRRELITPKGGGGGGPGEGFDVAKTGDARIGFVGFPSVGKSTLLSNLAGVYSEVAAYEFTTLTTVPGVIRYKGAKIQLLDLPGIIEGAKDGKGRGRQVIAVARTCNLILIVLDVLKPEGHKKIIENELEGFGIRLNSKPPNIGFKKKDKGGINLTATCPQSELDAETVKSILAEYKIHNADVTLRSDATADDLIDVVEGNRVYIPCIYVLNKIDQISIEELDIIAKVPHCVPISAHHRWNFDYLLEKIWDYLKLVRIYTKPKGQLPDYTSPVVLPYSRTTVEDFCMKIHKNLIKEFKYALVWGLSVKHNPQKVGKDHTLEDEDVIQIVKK

[2] = target: T2, HA-DRG2 A260Y + Y278D (human) (UniProt P55039)
T2 sequence: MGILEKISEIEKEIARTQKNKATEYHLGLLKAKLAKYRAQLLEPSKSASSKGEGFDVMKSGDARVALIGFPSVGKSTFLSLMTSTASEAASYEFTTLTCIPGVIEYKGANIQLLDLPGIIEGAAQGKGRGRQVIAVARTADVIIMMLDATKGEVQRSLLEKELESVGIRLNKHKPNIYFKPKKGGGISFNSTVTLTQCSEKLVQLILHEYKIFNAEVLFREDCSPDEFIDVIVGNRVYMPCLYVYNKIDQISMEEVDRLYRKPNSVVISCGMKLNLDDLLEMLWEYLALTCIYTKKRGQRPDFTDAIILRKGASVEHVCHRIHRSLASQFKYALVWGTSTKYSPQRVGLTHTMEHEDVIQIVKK

HA-DRG2 D277A (human) = target: T3, HA-DRG2 D277A (human) (UniProt P55039)
T3 sequence: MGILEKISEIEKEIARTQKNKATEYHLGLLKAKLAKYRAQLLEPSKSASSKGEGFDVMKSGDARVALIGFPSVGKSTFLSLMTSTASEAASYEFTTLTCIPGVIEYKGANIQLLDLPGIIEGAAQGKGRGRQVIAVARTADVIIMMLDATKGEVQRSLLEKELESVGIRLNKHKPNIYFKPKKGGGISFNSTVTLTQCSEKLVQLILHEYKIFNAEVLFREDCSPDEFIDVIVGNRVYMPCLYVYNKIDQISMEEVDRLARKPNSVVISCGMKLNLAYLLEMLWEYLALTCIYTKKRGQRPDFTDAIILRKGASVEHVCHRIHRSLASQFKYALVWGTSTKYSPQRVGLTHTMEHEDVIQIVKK

[3] = target: T4, HA-DRG2 E153L + A260Y + Y278D (human) (UniProt P55039)
T4 sequence: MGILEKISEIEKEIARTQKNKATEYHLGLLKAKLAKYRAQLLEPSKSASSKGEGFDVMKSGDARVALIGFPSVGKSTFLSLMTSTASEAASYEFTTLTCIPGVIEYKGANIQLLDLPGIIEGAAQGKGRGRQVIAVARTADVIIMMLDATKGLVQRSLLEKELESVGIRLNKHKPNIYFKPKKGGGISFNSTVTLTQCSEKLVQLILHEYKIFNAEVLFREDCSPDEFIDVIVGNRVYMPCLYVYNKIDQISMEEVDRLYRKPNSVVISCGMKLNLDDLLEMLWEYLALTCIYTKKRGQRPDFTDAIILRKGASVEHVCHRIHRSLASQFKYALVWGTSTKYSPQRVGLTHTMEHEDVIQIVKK

[4] = target: T5, HA-DRG2 ERAKY (E153L + R258I + A260Y + K262V + Y278D) (human) (UniProt P55039)
T5 sequence: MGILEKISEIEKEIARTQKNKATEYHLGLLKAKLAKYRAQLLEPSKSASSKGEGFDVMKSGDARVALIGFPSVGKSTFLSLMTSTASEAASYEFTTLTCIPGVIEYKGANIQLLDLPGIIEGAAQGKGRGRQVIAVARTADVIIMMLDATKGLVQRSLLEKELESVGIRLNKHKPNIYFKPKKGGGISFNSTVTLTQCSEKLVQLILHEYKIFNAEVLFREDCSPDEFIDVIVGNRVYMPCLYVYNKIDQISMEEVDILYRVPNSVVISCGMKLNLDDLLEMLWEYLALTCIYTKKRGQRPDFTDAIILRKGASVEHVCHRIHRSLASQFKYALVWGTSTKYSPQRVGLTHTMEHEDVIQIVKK

binding [1]: binds | binding [2]: no binding | binding (HA-DRG2 D277A (human)): binds | binding [3]: no binding | binding [4]: no binding
B1: DRG family regulatory protein 2 (DFRP2), endogenous (protein, UniProt Q9H446 1-243)
chain: MTDYGEEQRNELEALESIYPDSFTVLSENPPSFTITVTSEAGENDETVQTTLKFTYSEKYPDEAPLYEIFSQENLEDNDVSDILKLLALQAEENLGMVMIFTLVTAVQEKLNEIVDQIKTRREEEKKQKEKEAEEAEKQLFHGTPVTIENFLNWKAKFDAELLEIKKKRMKEEEQAGKNKLSGKQLFETDHNLDTSDIQFLEDAGNNVEVDESLFQEMDDLELEDDEDDPDYNPADPESDSAD
